Test results as given in patent publication US20260062488A1.
Results are given in words; binding and its absence hold for the method and conditions named. Some binding calls cover weakened binding; strength is not graded here.

The chains behind the UniProt entries cited, without tags or fusion partners. Where a name states a change or a piece, a line headed by the entry shows the natural chain unless it says otherwise.
UniProt P13612: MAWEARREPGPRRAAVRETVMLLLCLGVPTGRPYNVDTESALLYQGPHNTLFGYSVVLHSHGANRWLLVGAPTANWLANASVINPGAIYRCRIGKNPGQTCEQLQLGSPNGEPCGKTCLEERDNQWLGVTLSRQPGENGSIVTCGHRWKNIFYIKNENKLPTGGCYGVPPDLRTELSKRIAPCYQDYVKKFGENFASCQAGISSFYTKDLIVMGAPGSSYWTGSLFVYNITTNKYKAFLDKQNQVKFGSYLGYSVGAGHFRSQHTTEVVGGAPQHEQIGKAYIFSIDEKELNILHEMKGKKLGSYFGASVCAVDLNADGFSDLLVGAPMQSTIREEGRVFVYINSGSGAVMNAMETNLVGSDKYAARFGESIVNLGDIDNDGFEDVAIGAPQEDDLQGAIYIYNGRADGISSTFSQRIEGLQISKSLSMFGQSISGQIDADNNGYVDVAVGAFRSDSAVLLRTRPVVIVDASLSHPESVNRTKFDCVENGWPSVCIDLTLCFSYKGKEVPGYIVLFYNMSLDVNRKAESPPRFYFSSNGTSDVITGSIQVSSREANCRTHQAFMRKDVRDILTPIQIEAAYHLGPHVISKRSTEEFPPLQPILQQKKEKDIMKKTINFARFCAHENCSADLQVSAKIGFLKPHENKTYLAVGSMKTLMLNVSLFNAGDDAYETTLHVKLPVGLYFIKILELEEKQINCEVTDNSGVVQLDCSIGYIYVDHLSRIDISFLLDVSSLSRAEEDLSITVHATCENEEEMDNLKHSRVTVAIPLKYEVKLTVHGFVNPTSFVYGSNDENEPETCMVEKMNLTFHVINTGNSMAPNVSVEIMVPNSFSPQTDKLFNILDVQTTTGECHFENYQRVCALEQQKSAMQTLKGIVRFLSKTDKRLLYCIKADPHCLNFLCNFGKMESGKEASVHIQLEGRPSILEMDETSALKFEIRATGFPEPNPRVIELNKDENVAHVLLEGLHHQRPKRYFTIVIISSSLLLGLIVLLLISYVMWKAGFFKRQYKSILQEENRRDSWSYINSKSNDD

How the values were obtained:
[1] = biological target: biotinylated human α4β7 extracellular domain protein (human) (UniProt P13612); assay: yeast-displayed clones, FACS
[2] = biological target: biotinylated human α4β7 extracellular domain protein (human) (UniProt P13612); assay: yeast-displayed scFv, flow cytometry with human α4β7 antigen
[3] = biological target: biotinylated human α4β7 extracellular domain protein (human) (UniProt P13612); assay: flow cytometry of yeast-displayed scFv with human α4β7 antigen; which of PE-A and APC-A shows the antigen is not said
[4] = biological target: human α4β7 integrin (human) (UniProt P13612); assay: FACS on α4β7-expressing HuT78 cells

Row | Binder | binding [1] | binding [2] | binding [3] | binding [4]
1 | Ab-h1.9e scFv clone (yeast displayed) (scFv, V domains shown) VH: EVQLVQSGAEVKKPGSSVKVSCKASGFNIKNTYMHWVRQAPGQGLEWIGRIDPAGGHTEYAPKFIGRVTITADESTNTAYMELSSLRSEDTAVYYCYYVASWGQGTTVTVSS VL: DIQMTQSPSSLSASVGDRVTITCHASQEISDNIGWLQQKPGKSFKLLIYHGTNLEDGVPSRFSGSGSGTDYTLTISSLQPEDFATYYCVQYAQFPWTFGGGTKVEIK | binds | binds | binds | –
2 | Ab-h1.9 scFv (parental, yeast displayed) (scFv, V domains shown) VH: EVQLVQSGAEVKKPGSSVKVSCKASGFNIKNTYMHWVRQAPGQGLEWIGRIDPANGHTEYAPKFQGRVTITADESTNTAYMELSSLRSEDTAVYYCYYVDSWGQGTTVTVSS VL: DIQMTQSPSSLSASVGDRVTITCHASQGISDNIGWLQQKPGKSFKLLIYHGTNLEDGVPSRFSGSGSGTDYTLTISSLQPEDFATYYCVQYAQFPWTFGGGTKVEIK | – | binds | binds | –
3 | Ab-h1.9a scFv clone (yeast displayed) (scFv, V domains shown) VH: EVQLVQSGAEVKKPGSSVKVSCKASGFNIKNTYMHWVRQAPGQGLEWIGRIDPANKHTEYAPKFLGRVTITADESTNTAYMELSSLRSEDTAVYYCYYVASWGQGTTVTVSS VL: DIQMTQSPSSLSASVGDRVTITCHASQEISDNIGWLQQKPGKSFKLLIYHGTNLEDGVPSRFSGSGSGTDYTLTISSLQPEDFATYYCVQYAQFPWTFGGGTKVEIK | binds | binds | binds | –
4 | Ab-h1.9b scFv clone (yeast displayed) (scFv, V domains shown) VH: EVQLVQSGAEVKKPGSSVKVSCKASGFNIKNTYMHWVRQAPGQGLEWIGRIDPARGHTEYAPKFSGRVTITADESTNTAYMELSSLRSEDTAVYYCYYVDQWGQGTTVTVSS VL: DIQMTQSPSSLSASVGDRVTITCHASQDISDNIGWLQQKPGKSFKLLIYHGTNLEDGVPSRFSGSGSGTDYTLTISSLQPEDFATYYCVQYAQFPWTFGGGTKVEIK | binds | binds | binds | –
5 | Ab-h1.9c (antibody, V domains shown) VH: EVQLVQSGAEVKKPGSSVKVSCKASGFNIKNTYMHWVRQAPGQGLEWIGRIDPARGHTEYAPKFEGRVTITADESTNTAYMELSSLRSEDTAVYYCYYVASWGQGTTVTVSS VL: DIQMTQSPSSLSASVGDRVTITCHASQDISDNIGWLQQKPGKSFKLLIYHGTNLEDGVPSRFSGSGSGTDYTLTISSLQPEDFATYYCVQYAQFPWTFGGGTKVEIKR | – | – | – | binds
